The values below come from patent US20260022160A1 (AFFYXELL THERAPEUTICS, published 2026).

T1: human CD40L (human, UniProt P29965 113-261, limits assumed)
T1 sequence (looked up): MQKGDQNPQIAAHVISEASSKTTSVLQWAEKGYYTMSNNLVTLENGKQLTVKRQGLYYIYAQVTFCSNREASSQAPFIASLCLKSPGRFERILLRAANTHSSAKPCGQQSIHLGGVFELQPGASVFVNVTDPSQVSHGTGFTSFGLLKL

B1: stefin A protein variant clone 268 (designed binder)
chain: MIPGGLSEAKPATPEIQEIVDKVKPQLEEKTGETYGKLEAVQYKTQVVGDSYWEYVSGTNYYIKVRAGDNKYMHLKVFKSLPYRWRPDHAEDLVLTGYQVDKNKDDELTGF
B2: stefin A protein variant clone 261 (designed binder)
chain: MIPGGLSEAKPATPEIQEIVDKVKPQLEEKTGETYGKLEAVQYKTQVVVDQVWSENAGTNYYIKVRAGDNKYMHLKVFKSLPYLWRKHAVEDLVLTGYQVDKNKDDELTGF
B3: stefin A protein variant clone 255 (designed binder)
chain: MIPGGLSEAKPATPEIQEIVDKVKPQLEEKTGETYGKLEAVQYKTQVVFWVGLHNQLGTNYYIKVRAGDNKYMHLKVFKSLYYNGDNTQIEDLVLTGYQVDKNKDDELTGF
B4: stefin A protein variant clone 248 (designed binder)
chain: MIPGGLSEAKPATPEIQEIVDKVKPQLEEKTGETYGKLEAVQYKTQVVYDELYHEKAGTNYYIKVRAGDNKYMHLKVFKSLEYKFRNLEEDLVLTGYQVDKNKDDELTGF
B5: stefin A protein variant clone 263 (designed binder)
chain: MIPGGLSEAKPATPEIQEIVDKVKPQLEEKTGETYGKLEAVQYKTQVVTASLYWNYAGTNYYIKVRAGDNKYMHLKVFKSLFYYRGPQPVEDLVLTGYQVDKNKDDELTGF
B6: stefin A protein variant clone 270 (designed binder)
chain: MIPGGLSEAKPATPEIQEIVDKVKPQLEEKTGETYGKLEAVQYKTQVVLDGLYHVNSGTNYYIKVRAGDNKYMHLKVFKSLFYYYRSEPTEDLVLTGYQVDKNKDDELTGF
B7: stefin A protein variant clone 249 (designed binder)
chain: MIPGGLSEAKPATPEIQEIVDKVKPQLEEKTGETYGKLEAVQYKTQVVSWYYPKNVLGTNYYIKVRAGDNKYMHLKVFKSLEDFIAADDDEDLVLTGYQVDKNKDDELTGF
B8: stefin A protein variant clone 254 (designed binder)
chain: MIPGGLSEAKPATPEIQEIVDKVKPQLEEKTGETYGKLEAVQYKTQVVNWNQIDNPLGTNYYIKVRAGDNKYMHLKVFKSLNKDWEDQIIEDLVLTGYQVDKNKDDELTGF
B9: stefin A protein variant clone 259 (designed binder)
chain: MIPGGLSEAKPATPEIQEIVDKVKPQLEEKTGETYGKLEAVQYKTQVVHQDDVAWQSGTNYYIKVRAGDNKYMHLKVFKSLEYGWYHLPYEDLVLTGYQVDKNKDDELTGF
B10: stefin A protein variant clone 257 (designed binder)
chain: MIPGGLSEAKPATPEIQEIVDKVKPQLEEKTGETYGKLEAVQYKTQVVPEYQPQPKAGTNYYIKVRAGDNKYMHLKVFKSLFHFRKPQDREDLVLTGYQVDKNKDDELTGF
B11: stefin A protein variant clone 252 (designed binder)
chain: MIPGGLSEAKPATPEIQEIVDKVKPQLEEKTGETYGKLEAVQYKTQVVWRKLLSWWKGTNYYIKVRAGDNKYMHLKVFKSLILNPKSWNFEDLVLTGYQVDKNKDDELTGF
B12: stefin A protein variant clone 247 (designed binder)
chain: MIPGGLSEAKPATPEIQEIVDKVKPQLEEKTGETYGKLEAVQYKTQVVHHAYAAVYVGTNYYIKVRAGDNKYMHLKVFKSLPYWYRKYPDEDLVLTGYQVDKNKDDELTGF
B13: stefin A protein variant clone 265 (designed binder)
chain: MIPGGLSEAKPATPEIQEIVDKVKPQLEEKTGETYGKLEAVQYKTQVVQVHLDNSPLGTNYYIKVRAGDNKYMHLKVFKSLQFGEIIWWEEDLVLTGYQVDKNKDDELTGF
B14: stefin A protein variant clone 250 (designed binder)
chain: MIPGGLSEAKPATPEIQEIVDKVKPQLEEKTGETYGKLEAVQYKTQVVFLEWHFWEWGTNYYIKVRAGDNKYMHLKVFKSLDSQEFPSHLEDLVLTGYQVDKNKDDELTGF
B15: stefin A protein variant clone 267 (designed binder)
chain: MIPGGLSEAKPATPEIQEIVDKVKPQLEEKTGETYGKLEAVQYKTQVVWEWALLLEYGTNYYIKVRAGDNKYMHLKVFKSLHHPWQPAKQEDLVLTGYQVDKNKDDELTGF
B16: stefin A protein variant clone 258 (designed binder)
chain: MIPGGLSEAKPATPEIQEIVDKVKPQLEEKTGETYGKLEAVQYKTQVVNDPYFQSFSGTNYYIKVRAGDNKYMHLKVFKSLPYWYREPENEDLVLTGYQVDKNKDDELTGF
B17: stefin A protein variant clone 264 (designed binder)
chain: MIPGGLSEAKPATPEIQEIVDKVKPQLEEKTGETYGKLEAVQYKTQVVSWKQWHNYLGTNYYIKVRAGDNKYMHLKVFKSLYPDGDLILYEDLVLTGYQVDKNKDDELTGF
B18: stefin A protein variant clone 262 (designed binder)
chain: MIPGGLSEAKPATPEIQEIVDKVKPQLEEKTGETYGKLEAVQYKTQVVLSSIWQDVAGTNYYIKVRAGDNKYMHLKVFKSLLYQFRKEPVEDLVLTGYQVDKNKDDELTGF
B19: stefin A protein variant clone 266 (designed binder)
chain: MIPGGLSEAKPATPEIQEIVDKVKPQLEEKTGETYGKLEAVQYKTQVVQNNWYLSNYGTNYYIKVRAGDNKYMHLKVFKSLVEERWGLWVEDLVLTGYQVDKNKDDELTGF
B20: stefin A protein variant clone 256 (designed binder)
chain: MIPGGLSEAKPATPEIQEIVDKVKPQLEEKTGETYGKLEAVQYKTQVVFTQPFNEPIGTNYYIKVRAGDNKYMHLKVFKSLYWDDKVGYYEDLVLTGYQVDKNKDDELTGF
B21: stefin A protein variant clone 243 (designed binder)
chain: MIPGGLSEAKPATPEIQEIVDKVKPQLEEKTGETYGKLEAVQYKTQVVFTYQISYTVGTNYYIKVRAGDNKYMHLKVFKSLRWRYPARKPEDLVLTGYQVDKNKDDELTGF
B22: stefin A protein variant clone 251 (designed binder)
chain: MIPGGLSEAKPATPEIQEIVDKVKPQLEEKTGETYGKLEAVQYKTQVVSWVRGTNQLGTNYYIKVRAGDNKYMHLKVFKSLEPDWPDFLIEDLVLTGYQVDKNKDDELTGF
B23: stefin A protein variant clone 272 (designed binder)
chain: MIPGGLSEAKPATPEIQEIVDKVKPQLEEKTGETYGKLEAVQYKTQVVWEDHWNYQYGTNYYIKVRAGDNKYMHLKVFKSLELYSNQIVWEDLVLTGYQVDKNKDDELTGF
B24: stefin A protein variant clone 246 (designed binder)
chain: MIPGGLSEAKPATPEIQEIVDKVKPQLEEKTGETYGKLEAVQYKTQVVHIPALKVHAGTNYYIKVRAGDNKYMHLKVFKSLPYWYRHDQEEDLVLTGYQVDKNKDDELTGF
B25: stefin A protein variant clone 271 (designed binder)
chain: MIPGGLSEAKPATPEIQEIVDKVKPQLEEKTGETYGKLEAVQYKTQVVHAPAPVQAIGTNYYIKVRAGDNKYMHLKVFKSLPYWYRPNRPEDLVLTGYQVDKNKDDELTGF
B26: stefin A protein variant clone 241 (designed binder)
chain: MIPGGLSEAKPATPEIQEIVDKVKPQLEEKTGETYGKLEAVQYKTQVVVRVEPTPNDGTNYYIKVRAGDNKYMHLKVFKSLPLVQELWGFEDLVLTGYQVDKNKDDELTGF
B27: stefin A protein variant clone 253 (designed binder)
chain: MIPGGLSEAKPATPEIQEIVDKVKPQLEEKTGETYGKLEAVQYKTQVVPKSHQTNEQGTNYYIKVRAGDNKYMHLKVFKSLWNENHFSVWEDLVLTGYQVDKNKDDELTGF
B28: stefin A protein variant clone 269 (designed binder)
chain: MIPGGLSEAKPATPEIQEIVDKVKPQLEEKTGETYGKLEAVQYKTQVVGQKWWQHKIGTNYYIKVRAGDNKYMHLKVFKSLHSNAWNLQHEDLVLTGYQVDKNKDDELTGF
B29: stefin A protein variant clone 260 (designed binder)
chain: MIPGGLSEAKPATPEIQEIVDKVKPQLEEKTGETYGKLEAVQYKTQVVKGYFHTVEAGTNYYIKVRAGDNKYMHLKVFKSLTYHFRTDLNEDLVLTGYQVDKNKDDELTGF
B30: stefin A protein variant clone 240 (designed binder)
chain: MIPGGLSEAKPATPEIQEIVDKVKPQLEEKTGETYGKLEAVQYKTQVVTAYYIHVNAGTNYYIKVRAGDNKYMHLKVFKSLPYGYRAKAPEDLVLTGYQVDKNKDDELTGF
B31: stefin A protein variant clone 242 (designed binder)
chain: MIPGGLSEAKPATPEIQEIVDKVKPQLEEKTGETYGKLEAVQYKTQVVDLNSSVWYQGTNYYIKVRAGDNKYMHLKVFKSLYWLLEIEHREDLVLTGYQVDKNKDDELTGF
B32: stefin A protein variant clone 245 (designed binder)
chain: MIPGGLSEAKPATPEIQEIVDKVKPQLEEKTGETYGKLEAVQYKTQVVTALAWNTQAGTNYYIKVRAGDNKYMHLKVFKSLPWLYRQKSDEDLVLTGYQVDKNKDDELTGF
B33: stefin A protein variant clone 244 (designed binder)
chain: MIPGGLSEAKPATPEIQEIVDKVKPQLEEKTGETYGKLEAVQYKTQVVRENWYGEFAGTNYYIKVRAGDNKYMHLKVFKSLLYIYRHPNYEDLVLTGYQVDKNKDDELTGF

Results are given in words; binding and its absence hold for the method and conditions named. Some binding calls cover weakened binding; strength is not graded here.

For this assay, the target named is T1, human CD40L. The assay is described as follows: ELISA, bacterial lysate on plate-bound human CD40L, anti-Myc tag detection. For orientation: ELISA stands for enzyme-linked immunosorbent assay.
As for B1, the binding result is “binds”. In the case of B2 it was “binds”. With B3, the binding entry is “binds”. In the case of B4, the binding entry was “binds”. Turning to B5, the binding result is “binds”. In the case of B6 it was “binds”; in that of B7, “binds”. In the case of B8, the binding result is on record as “binds”. In the case of B9 it was “binds”; in that of B10, “binds”; in that of B11, “binds”. With B12 the entry was “binds”.

In the case of B13, the binding result is listed as “binds”. In the case of B14 it was “binds”; in that of B15, “binds”; in that of B16, “binds”.

Turning to B17, the binding result is “binds”.

As to B18, the binding result is given as “binds”. In the case of B19 it was “binds”; in that of B20, “binds”. Take B21: the binding result is “binds”. Consider B22, for which the binding entry is on record as “binds”. With B23 the entry was “binds”; with B24, “binds”.

In the case of B25, the binding result is recorded as “binds”. In the case of B26 it was “binds”. With B27 the entry was “binds”; with B28, “binds”. With B29 the entry was “binds”; with B30, “binds”; with B31, “binds”. As to B32, the binding result was “binds”. With B33 the entry was “binds”.
